These are yes or no findings as the source states them, for the method shown. Binding seen in cells or lysates may run through a third protein. These calls come from enrichment with a bait or labelling near it, and not all partners need be listed. Tags and fused reporters may be left off the sequences shown.

The chains behind the UniProt entries cited, without tags or fusion partners. Residues count along the entry.
UniProt P10809, residues 27-573: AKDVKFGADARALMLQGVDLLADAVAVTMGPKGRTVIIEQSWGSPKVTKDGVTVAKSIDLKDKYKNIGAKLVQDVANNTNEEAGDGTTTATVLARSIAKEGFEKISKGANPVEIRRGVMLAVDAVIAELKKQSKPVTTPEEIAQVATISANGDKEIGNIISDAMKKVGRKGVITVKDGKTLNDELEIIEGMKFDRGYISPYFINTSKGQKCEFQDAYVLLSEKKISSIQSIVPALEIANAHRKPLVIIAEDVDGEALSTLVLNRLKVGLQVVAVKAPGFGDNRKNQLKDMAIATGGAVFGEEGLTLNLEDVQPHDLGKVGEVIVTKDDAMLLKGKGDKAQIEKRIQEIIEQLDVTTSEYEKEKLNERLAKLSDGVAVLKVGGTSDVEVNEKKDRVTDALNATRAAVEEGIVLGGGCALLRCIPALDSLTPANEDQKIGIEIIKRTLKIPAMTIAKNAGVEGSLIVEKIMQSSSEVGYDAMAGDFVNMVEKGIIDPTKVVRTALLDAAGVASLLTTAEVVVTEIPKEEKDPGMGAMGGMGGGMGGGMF

The target in this experiment is T1, FLAG-tagged wild type MASL1 (malignant fibrous histiocytoma amplified sequences with leucine-rich tandem repeats 1) (human) (UniProt Q9Y4C4).
T1 sequence: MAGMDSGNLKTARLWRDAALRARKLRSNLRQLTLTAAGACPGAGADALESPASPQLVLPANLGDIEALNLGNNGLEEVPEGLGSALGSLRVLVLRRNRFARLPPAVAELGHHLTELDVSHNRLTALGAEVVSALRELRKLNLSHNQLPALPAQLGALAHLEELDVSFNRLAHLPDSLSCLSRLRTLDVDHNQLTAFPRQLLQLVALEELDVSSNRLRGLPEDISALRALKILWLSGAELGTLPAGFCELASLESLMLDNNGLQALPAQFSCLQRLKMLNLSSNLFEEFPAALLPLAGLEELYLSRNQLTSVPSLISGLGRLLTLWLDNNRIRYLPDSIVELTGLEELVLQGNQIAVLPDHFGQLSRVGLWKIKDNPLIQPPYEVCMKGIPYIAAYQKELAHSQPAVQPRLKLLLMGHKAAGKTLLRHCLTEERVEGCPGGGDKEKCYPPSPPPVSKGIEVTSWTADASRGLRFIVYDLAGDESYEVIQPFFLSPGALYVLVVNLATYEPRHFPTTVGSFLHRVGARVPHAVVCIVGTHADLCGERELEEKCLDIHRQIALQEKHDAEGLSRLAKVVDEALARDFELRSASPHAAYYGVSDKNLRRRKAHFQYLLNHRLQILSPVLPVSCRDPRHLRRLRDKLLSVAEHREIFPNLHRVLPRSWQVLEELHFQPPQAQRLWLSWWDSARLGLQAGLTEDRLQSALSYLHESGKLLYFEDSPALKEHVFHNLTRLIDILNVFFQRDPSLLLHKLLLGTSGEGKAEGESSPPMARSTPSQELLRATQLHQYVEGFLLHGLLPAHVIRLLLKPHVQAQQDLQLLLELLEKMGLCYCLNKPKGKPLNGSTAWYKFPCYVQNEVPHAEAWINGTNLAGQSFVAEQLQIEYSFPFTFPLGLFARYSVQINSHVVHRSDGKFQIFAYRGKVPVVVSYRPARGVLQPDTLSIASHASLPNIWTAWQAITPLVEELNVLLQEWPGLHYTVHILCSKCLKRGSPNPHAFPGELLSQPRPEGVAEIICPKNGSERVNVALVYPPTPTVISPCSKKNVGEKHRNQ
Briefly: affinity purification with mass spectrometry; lysates of MASL1 transfected HEK293T cells immunoprecipitated with FLAG-agarose beads, washed with 20 mM Tris, 150-500 mM NaCl, 0.02-1% Triton X-100; bands cut from SDS/PAGE, MALDI-QTOF MS.

On to “Heat shock protein 60 (HSP60) (from UniProt P10809 27-573)”, for which the binding result is on record as “binds”.

Source of the values: PMC3995007, “GTP binding controls complex formation by the human ROCO protein MASL1” (The Febs Journal, 2013).
